Laboratory results: article doi:10.1101/2023.02.27.530266
No constants are given. Whether binding was seen depends on the method and setting. In cells and extracts the contact can be indirect. Some binding calls cover weakened binding; strength is not graded here. Where a sequence is shown, tags or fusion partners need not be part of it.

Protein sequences, listed by entry. Tags and fused reporters are not part of them.
UniProt P84077: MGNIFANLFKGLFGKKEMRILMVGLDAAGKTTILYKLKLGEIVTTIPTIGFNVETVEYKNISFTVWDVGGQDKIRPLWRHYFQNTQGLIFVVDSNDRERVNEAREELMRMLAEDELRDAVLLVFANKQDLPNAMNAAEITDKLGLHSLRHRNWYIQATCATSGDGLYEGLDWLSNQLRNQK

Biological target: T1, HA-tagged SseI (full length), Salmonella Typhimurium SPI2 effector protein (Salmonella typhimurium (STM) strain LT-2) (UniProt Q8ZQ79)
T1 sequence: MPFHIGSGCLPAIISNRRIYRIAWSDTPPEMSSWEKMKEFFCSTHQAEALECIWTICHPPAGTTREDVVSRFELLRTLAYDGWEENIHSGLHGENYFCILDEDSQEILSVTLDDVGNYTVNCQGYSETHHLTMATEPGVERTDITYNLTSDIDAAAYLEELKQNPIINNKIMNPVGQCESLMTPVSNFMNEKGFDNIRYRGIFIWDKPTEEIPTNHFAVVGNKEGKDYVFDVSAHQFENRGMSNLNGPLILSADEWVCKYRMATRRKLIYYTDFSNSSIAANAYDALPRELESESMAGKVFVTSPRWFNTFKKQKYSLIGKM
Assay: co-IP

GFP-tagged ARF1 (ADP-ribosylation factor 1) (from UniProt P84077 1-181)
binding: binds
